Source: paper doi:10.1101/2021.07.08.451585

Molecular target: ectopically expressed 3xHA-CLUH protein (not stated (human or mouse cDNA cloned))
Experiment: co-IP

- binding: binds
B1: GFP-KNSTRN (protein, UniProt Q9Y448 1-316)
chain: MAAPEAPPLDRVFRTTWLSTECDSHPLPPSYRKFLFETQAADLAGGTTVAAGNLLNESEKDCGQDRRAPGVQPCRLVTMTSVVKTVYSLQPPSALSGGQPADTQTRATSKSLLPVRSKEVDVSKQLHSGGPENDVTKITKLRRENGQMKATDTATRRNVRKGYKPLSKQKSEEELKDKNQLLEAVNKQLHQKLTETQGELKDLTQKVELLEKFRDNCLAILESKGLDPALGSETLASRQESTTDHMDSMLLLETLQEELKLFNETAKKQMEELQALKVKLEMKEERVRFLEQQTLCNNQVNDLTTALKEMEQLLEM

Results are given in words; binding and its absence hold for the method and conditions named. Binding seen in cells or lysates may run through a third protein. Binding can be weak; no strength is given. Sequences can lack the tags named with a protein.
